Consider one molecule from patent US20140100222A1, “Beta2-ADRENOCEPTOR AGONIST FOR THE TREATMENT OF COUGH” (BOEHRINGER INGELHEIM INTERNATIONAL GMBH, priority 2012, published 2014).

Test [1] relates to citric acid induced cough in OVA sensitised guinea pigs. The experiment in a line: Anti-tussive activity: citric acid induced cough in OVA sensitised guinea pigs (whole body plethysmograph). It is filed as in vivo, guinea pig. The conditions noted are these: first dose without side-effect displaying 70 to 80% efficacy. Here is the method:
Animals—Male albino Dunkin-Hartley guinea pigs (350-550 g; Charles River WIGA GmbH, Sulzfeld, Germany) were used. The animals were housed in groups of 6 in solid floor cages and allowed free access to water and standard food. The guinea pigs were kept in rooms maintained at a constant temperature (22° C.±2° C.) and humidity (60%±15%), with a 12 h light cycle. The experiments were approved by the ethical committee Regierungspräsidium Tübingen, Germany.
OVA asthma model—On days 1 and 2, the guinea pigs were immunised by subcutaneous injection of 0.5 ml per animal of a solution of ovalbumin (OVA) (40 μg/ml) and aluminium hydroxide [Al (OH)3]. […]
Cough recording—Two hours after i.t. application, the citric acid challenge was performed. […] During the challenge, airflow in the chamber was recorded by the Buxco system and analysed for the transient increase in airflow produced by cough, in which rapid inspiration is followed by rapid expiration. The system was able to distinguish coughs from other expiratory responses, and the number of coughs was counted.
Data analysis—Data from the treatment groups were compared with the vehicle group. Data are expressed as mean ±SEM of coughs produced by guinea pigs within each group during a 15 minutes citric acid aerosol exposure. […]

For the next test, the system named is cough reflex. The following applies: inhaled therapy in asthma, COPD or IPF; therapeutic doses; cited from earlier work.
Test [2] has as its system acetylcholine induced bronchoconstriction in guinea pigs. The experiment in a line: Bronchoprotection: acetylcholine induced bronchospasm in anaesthetised guinea pigs (Konzett-Rössler). The following applies: for Bronchoconstriction (ml overflow): 2 h before acetylcholine 14 μg/kg i.v., mean. Type of test: in vivo, guinea pig. Here is the method:
Animal-Male and female Dunkin-Harley guinea pigs were obtained from the Experimental Animal Breeding Centre of Harlan Winkelmann (Germany). After fasting overnight, but with free access to drinking water, animals with body weight of 400-500 g are used. Anesthesia and preparation-The anesthesia was induced by intraperitoneal injection of 50 mg/kg pentobarbital. Anesthesia was prolonged by intravenous infusion of pentobarbital (15 mg/kg/h) via the jugular vein. A tracheal cannula was introduced after tracheotomy for artificial ventilation. The internal jugular vein was cannulated for acetylcholine injection. Instrumentation-Bronchospasm was recorded with a modified version of the method of Konzett-Röβler described by […] et al, 1997. […] Lung resistance was measured as ml of overflow and was recorded, amplified and saved under Notocord files (Notocord-hem, Notocord, France). Blood pressure and heart rate were monitored from a carotid artery in order to check the anesthesia and the variability of the preparation. Experimental protocol-2 hours before acetylcholine challenge, guinea pigs were given the test compound or its vehicle intra-tracheally under a slight isoflurane anesthesia. 30 minutes before acetylcholine challenge, lung resistance and blood pressure were measured under anesthesia. […] Data analysis-Data from the treatment groups were compared with the vehicle group. Data are expressed as mean ±SD of ml of overflow. […] Mean values were statistically analyzed by one-way analysis of variance (ANOVA) followed by the Dunnett's Multiple comparisons Test to evaluate significant differences between groups with p<0.05 being considered significant.

Marks after values point to notes of the source that are not given here.

`COc1ccc(CC(C)NCC(O)c2ccc(O)c(NC=O)c2)cc1` (stereo not drawn) [Formoterol]: the “antitussive Fully Effective Dose (FED)” value in test [1] is 3 µg/kg. For the same molecule, in the test with cough reflex, the “effect on cough reflex” value is given as “display anti-tussive effect”. Besides, the “Bronchoconstriction (ml overflow)” value in test [2] (0.1 μg/kg i.t.) came to 26 mL; in test [2] (0.3 μg/kg i.t.), 14 mL; in test [2] (1 μg/kg i.t.) it was 9 mL; in test [2] (3 μg/kg i.t.) it was 4 mL. Besides, the “Bronchoprotection (%)” value is recorded as 29% in test [2] (0.1 μg/kg i.t., inhibition of acetylcholine bronchoconstriction); 62 * % in test [2] (0.3 μg/kg i.t., inhibition of acetylcholine bronchoconstriction); 78 * % in test [2] (1 μg/kg i.t., inhibition of acetylcholine bronchoconstriction); 89 * % in test [2] (3 μg/kg i.t., inhibition of acetylcholine bronchoconstriction); 29% in test [2] (summary, 0.1 μg/kg); 62% in test [2] (summary, 0.3 μg/kg). Besides, the “Bronchoprotection (%)” value in test [2] (summary, 1 μg/kg) turned out to be 78%; in test [2] (summary, 3 μg/kg) it was 89%. In test [2] (first dose without side-effect displaying 80 to 100% efficacy), the “bronchoprotective FED” value is 3 µg/kg.
